Reference: article PMC8983672
These are yes or no findings as the source states them, for the method shown. Binding seen in cells or lysates may run through a third protein. Some entries that bind do so weakly or less than the wild type.

The chains behind the UniProt entries cited, without tags or fusion partners.
UniProt P47936: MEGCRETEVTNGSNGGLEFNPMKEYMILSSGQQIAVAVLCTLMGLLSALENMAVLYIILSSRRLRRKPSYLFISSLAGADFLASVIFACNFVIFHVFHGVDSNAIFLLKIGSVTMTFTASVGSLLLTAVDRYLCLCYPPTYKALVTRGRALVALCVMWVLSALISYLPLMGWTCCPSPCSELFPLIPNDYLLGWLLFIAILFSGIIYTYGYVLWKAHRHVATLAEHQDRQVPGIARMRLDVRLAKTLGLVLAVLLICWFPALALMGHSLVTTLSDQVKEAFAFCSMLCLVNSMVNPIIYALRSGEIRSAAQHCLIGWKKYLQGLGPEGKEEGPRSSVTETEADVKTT
UniProt P52332: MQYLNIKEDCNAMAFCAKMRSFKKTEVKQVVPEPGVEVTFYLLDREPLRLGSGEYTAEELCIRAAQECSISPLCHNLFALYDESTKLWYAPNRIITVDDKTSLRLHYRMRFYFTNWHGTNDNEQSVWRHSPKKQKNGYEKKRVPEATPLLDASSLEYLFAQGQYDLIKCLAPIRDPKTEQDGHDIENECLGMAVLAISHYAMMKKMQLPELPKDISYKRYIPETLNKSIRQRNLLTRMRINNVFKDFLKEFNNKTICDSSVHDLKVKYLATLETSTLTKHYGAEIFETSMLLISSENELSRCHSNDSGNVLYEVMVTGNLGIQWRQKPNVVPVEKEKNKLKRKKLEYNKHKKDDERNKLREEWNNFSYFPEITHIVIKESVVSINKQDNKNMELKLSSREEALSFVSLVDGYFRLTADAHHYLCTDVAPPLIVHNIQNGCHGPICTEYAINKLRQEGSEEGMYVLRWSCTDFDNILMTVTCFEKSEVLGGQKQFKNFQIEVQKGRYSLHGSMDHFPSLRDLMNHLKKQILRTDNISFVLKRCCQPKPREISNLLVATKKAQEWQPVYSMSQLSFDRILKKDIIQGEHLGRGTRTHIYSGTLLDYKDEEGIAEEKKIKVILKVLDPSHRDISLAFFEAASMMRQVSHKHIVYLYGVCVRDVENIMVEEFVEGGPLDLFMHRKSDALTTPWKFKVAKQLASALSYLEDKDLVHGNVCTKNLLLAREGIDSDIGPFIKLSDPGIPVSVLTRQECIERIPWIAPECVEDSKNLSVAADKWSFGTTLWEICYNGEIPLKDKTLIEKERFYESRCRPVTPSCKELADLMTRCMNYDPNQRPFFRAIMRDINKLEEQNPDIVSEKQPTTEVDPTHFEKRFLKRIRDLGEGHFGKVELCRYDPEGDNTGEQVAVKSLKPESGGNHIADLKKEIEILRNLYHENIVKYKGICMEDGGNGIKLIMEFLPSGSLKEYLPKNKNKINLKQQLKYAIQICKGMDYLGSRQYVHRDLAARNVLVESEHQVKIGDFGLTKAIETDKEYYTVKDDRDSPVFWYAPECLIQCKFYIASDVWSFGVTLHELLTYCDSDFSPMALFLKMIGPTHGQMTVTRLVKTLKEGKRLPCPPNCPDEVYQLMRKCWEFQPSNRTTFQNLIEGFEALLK

Biological target: FLAG-tagged CNR2 (cannabinoid receptor 2) from Cnr2-2×Flag-IRES-Egfp^flox/flox knock-in mice (mouse) (UniProt P47936)
Test: co-IP; lysate of Cnr2-2×Flag-IRES-Egfp^flox/flox CD8+ T cells treated with THC or DMSO for 24 h; precipitated with Flag antibody, blotted with anti-JAK1 and anti-Flag

JAK1 (from UniProt P52332 1-1153) (enzyme)
binding: binds
